## Cleaved PARP after 72 h of treatment

Drugs:
CP-690550: C[C@@H]1CCN(C(=O)CC#N)C[C@@H]1N(C)c1ncnc2[nH]ccc12 at 5 µM
pioglitazone: CCc1ccc(CCOc2ccc(CC3SC(=O)NC3=O)cc2)nc1 (stereo not drawn) at 10 µM
XAV939: Oc1nc(-c2ccc(C(F)(F)F)cc2)nc2c1CSCC2 at 10 µM
midostaurin: CO[C@@H]1[C@H](N(C)C(=O)c2ccccc2)C[C@H]2O[C@]1(C)n1c3ccccc3c3c4c(c5c6ccccc6n2c5c31)C(=O)NC4 at 0.4 µM
GW9662: O=C(Nc1ccccc1)c1cc([N+](=O)[O-])ccc1Cl at 10 µM
AZD7762: NC(=O)Nc1cc(-c2cccc(F)c2)sc1C(=O)N[C@H]1CCCNC1 at 0.1 µM
sorafenib: CNC(=O)c1cc(Oc2ccc(NC(=O)Nc3ccc(Cl)c(C(F)(F)F)c3)cc2)ccn1 at 2 µM
pazopanib: Cc1ccc(Nc2nccc(N(C)c3ccc4c(C)n(C)nc4c3)n2)cc1S(N)(=O)=O at 2 µM
TCS401: O=C(O)C(=O)Nc1sc2c(c1C(=O)O)CCNC2 at 8.33 µM

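The test systems are human melanoma cell lines, treated with a pair of drugs for 72 h and then stained and imaged. Each value is the cleaved-PARP-positive fraction of nuclei relative to DMSO-treated wells, in %, so that 100 equals the control and higher values mean more apoptosis. Every drug was used at one fixed concentration, the higher of two screened. These are primary screening values without error estimates. Basal and induced levels differ widely between cell lines.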
An unselected part of the screen is shown.
An entry leaves out what has no value listed here.
A dash means that no value is listed here.

| Combination | MZ2-MEL | A2058 | SK-MEL-30 | COLO 792 | LOX IMVI | MEL-HO | 501mel | SK-MEL-28 |
|---|---|---|---|---|---|---|---|---|
| sorafenib + TCS401 | 153 | 114 | 61.8 | 306 | 78.0 | 326 | 110 | 174 |
| TCS401 + CP-690550 | 219 | 121 | 34.3 | 55.7 | 81.2 | 45.3 | 79.0 | 36.4 |
| AZD7762 + pazopanib | 99.8 | 206 | 127 | 104 | 134 | 69.9 | - | 318 |
| midostaurin + GW9662 | 571 | 300 | 289 | 421 | 176 | 152 | 225 | 516 |
| pazopanib + GW9662 | 91.6 | 132 | 145 | 96.6 | 120 | 88.3 | 132 | 159 |
| XAV939 + sorafenib | 40.7 | 126 | 134 | 35.1 | 81.4 | 86.8 | 53.8 | 36.4 |
| GW9662 + AZD7762 | 337 | 429 | 578 | 432 | 92.8 | 365 | 214 | 663 |
| midostaurin + TCS401 | 61.5 | 201 | 177 | 65.5 | 114 | 36.7 | 65.7 | 196 |
| pioglitazone + sorafenib | 74.0 | 50.6 | 82.6 | 25.5 | 133 | 136 | 145 | 78.9 |
| pioglitazone + pazopanib | 30.9 | 114 | 88.3 | 77.8 | 122 | 47.9 | 143 | 115 |
| pioglitazone + GW9662 | 91.1 | 79.6 | 216 | 99.3 | 92.3 | 102 | 159 | 259 |
| pioglitazone + CP-690550 | 74.7 | 104 | 69.5 | 109 | 566 | 22.6 | 149 | 159 |
| pazopanib + midostaurin | 330 | 354 | 117 | 126 | 764 | 308 | - | 141 |
| XAV939 + GW9662 | 71.0 | 128 | 156 | 89.6 | 123 | 28.2 | 110 | 292 |
| sorafenib + midostaurin | 863 | 410 | 110 | 294 | 52.2 | 207 | - | 72.1 |
| sorafenib + AZD7762 | 244 | 110 | 637 | 283 | 80.6 | 74.4 | - | 111 |
| TCS401 + AZD7762 | 99.6 | 211 | 233 | 216 | 132 | 112 | 72.8 | 598 |
| GW9662 + TCS401 | 120 | 134 | 72.0 | 90.2 | 66.6 | 131 | 129 | 466 |
| AZD7762 + XAV939 | 70.6 | 247 | 225 | 197 | 125 | 60.9 | 153 | 123 |
| XAV939 + pazopanib | 83.1 | 170 | 128 | 71.2 | 17.4 | 100 | 69.4 | 99.7 |
| XAV939 + pioglitazone | 99.5 | 101 | 110 | 29.1 | 30.2 | 282 | 44.4 | 146 |
| CP-690550 + GW9662 | 104 | 69.4 | 147 | 82.4 | 133 | 55.8 | 100 | 90.8 |
| XAV939 + midostaurin | 478 | 391 | 292 | 273 | 91.9 | 78.3 | 150 | 243 |
| CP-690550 + XAV939 | 58.2 | 102 | 89.0 | 88.7 | 60.9 | 55.2 | 164 | 63.2 |
| sorafenib + CP-690550 | 49.8 | 114 | 57.9 | 45.4 | 93.1 | 61.5 | - | 49.5 |
| CP-690550 + pazopanib | 50.4 | 91.5 | 119 | 54.0 | 78.5 | 77.7 | - | 144 |
| XAV939 + TCS401 | 28.2 | 81.8 | 131 | 138 | 85.6 | 49.5 | 169 | 96.0 |
| sorafenib + GW9662 | 78.8 | 37.4 | 155 | 61.4 | 128 | 72.7 | 48.7 | 44.3 |
| pioglitazone + TCS401 | - | 131 | 32.4 | 183 | 97.7 | 74.5 | - | 83.1 |
| AZD7762 + midostaurin | 580 | 300 | 245 | 590 | 212 | 187 | - | 64.3 |
| pioglitazone + AZD7762 | 109 | 266 | 339 | 601 | 93.9 | 81.4 | 102 | 216 |
| pioglitazone + midostaurin | 551 | 682 | 242 | 571 | 77.4 | 141 | 52.4 | 204 |
| TCS401 + pazopanib | 161 | 47.9 | 48.5 | 67.9 | 192 | 133 | 117 | 63.9 |
| pazopanib + sorafenib | 147 | 75.7 | 100 | 59.0 | 147 | 130 | - | 203 |
| midostaurin + CP-690550 | 520 | 559 | 146 | 306 | 217 | 99.3 | - | 358 |

4 of the entries, repeated:

{"combination": "GW9662 + AZD7762", "MZ2-MEL": 337, "A2058": 429, "SK-MEL-30": 578, "COLO 792": 432, "LOX IMVI": 92.8, "MEL-HO": 365, "501mel": 214, "SK-MEL-28": 663}
{"combination": "XAV939 + GW9662", "MZ2-MEL": 71.0, "A2058": 128, "SK-MEL-30": 156, "COLO 792": 89.6, "LOX IMVI": 123, "MEL-HO": 28.2, "501mel": 110, "SK-MEL-28": 292}
{"combination": "XAV939 + sorafenib", "MZ2-MEL": 40.7, "A2058": 126, "SK-MEL-30": 134, "COLO 792": 35.1, "LOX IMVI": 81.4, "MEL-HO": 86.8, "501mel": 53.8, "SK-MEL-28": 36.4}
{"combination": "XAV939 + midostaurin", "MZ2-MEL": 478, "A2058": 391, "SK-MEL-30": 292, "COLO 792": 273, "LOX IMVI": 91.9, "MEL-HO": 78.3, "501mel": 150, "SK-MEL-28": 243}

From a melanoma drug combination screen (doi:10.1371/journal.pone.0140310); values rounded.